Results reported in the supplement of paper PMC7024190.
Where a name gives a salt, the structure may show the parent alone. This is one part of the list. Repeats in this data set agree poorly, so a single value says little.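 A first-round screen of about ten thousand compounds sought those raising reporter output, using human embryonic kidney cells briefly transfected with a plasmid carrying a Renilla luciferase gene driven by the HSV-TK promoter.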

These compounds were tested on HEK 293FT (assay: log relative Renilla luciferase luminescence (reporter expression vs reference, reference not stated) (log (base not stated)); higher = higher recombinant reporter expression). Conditions: 10 µM; time after transfection 48 h.

Compound	log
CCc1cc(Cl)c(OC)c(C(=O)NC[C@@H]2CCCN2CC)c1O [Eticlopride hydrochloride]	0.148
Cc1cc(I)ccc1Nc1c(C(=O)NOCC2CC2)cc(F)c(F)c1F	-0.0858
NC(=O)c1ccc2[nH]ccc2c1	0.0606
CCCn1c(=O)c2[nH]c(C3CCCC3)nc2n(CCC)c1=O	0.16
Cc1cccc(C)c1OCC(C)N (centres undefined) [Mexiletine hydrochloride]	0.0511
Cc1ccc(C(=O)Nc2ccc(S(=O)(=O)O)c3cc(S(=O)(=O)O)cc(S(=O)(=O)O)c23)cc1NC(=O)c1cccc(NC(=O)Nc2cccc(C(=O)Nc3cc(C(=O)Nc4ccc(S(=O)(=O)O)c5cc(S(=O)(=O)O)cc(S(=O)(=O)O)c45)ccc3C)c2)c1 [Suramin hexasodium salt]	0.114
Cc1ccc(NC2=CC(=O)c3sc(C)nc3C2=O)cc1 [Ryuvidine]	-0.403
c1cc(CN2CCCCC2)cc(OCCCNc2nc3ccccc3s2)c1 [Zolantidine dimaleate]	0.00743
COc1ccc(NC(=O)c2ccc(-c3ccc(-c4noc(C)n4)cc3C)cc2)cc1OCCN(C)C	-0.0536
CCOC(=O)[C@]12CC1/C(=N\O)c1ccccc1O2 (some centres undefined)	-0.138
CC(=O)NNC(=O)N1Cc2ccccc2Oc2ccc(Cl)cc21	0.034
CC(=O)N(O)[C@@H]1c2cc(C#N)ccc2OC(C)(C)[C@H]1O	0.113
O=C(Nc1ccccc1)N[C@@H]1C[C@@H](C(=O)O)Nc2cc(Cl)cc(Cl)c21	-0.0659
CC(C)c1onc(-c2c(Cl)cccc2Cl)c1COc1ccc(/C=C/c2cccc(C(=O)O)c2)c(Cl)c1	0.0175
Cc1cc(C(=O)O)sc1C(N)C(=O)O (centres undefined)	0.028
Nc1c(Br)cc(Br)cc1CN[C@H]1CC[C@H](O)CC1 [Ambroxol hydrochloride]	-0.0661
CCOC(=O)c1cnc2c(cnn2CC)c1NN=C(C)C [Etazolate hydrochloride]	0.0515
COc1cc(NC(=O)c2ccccn2)ccc1Cl	-0.13
CC(C)(C)[N+]([O-])=Cc1ccc(S(=O)(=O)O)cc1S(=O)(=O)O	-8.27e-06
NC(N)=Nc1ccc(Cl)cc1 [4-Chlorophenylguanidine hydrochloride]	0.147

Two entries drawn at random from those above, as already listed:
Compound	log
CC(C)(C)[N+]([O-])=Cc1ccc(S(=O)(=O)O)cc1S(=O)(=O)O	-8.27e-06
Nc1c(Br)cc(Br)cc1CN[C@H]1CC[C@H](O)CC1 [Ambroxol hydrochloride]	-0.0661

Carrying on.

Compound	log
COc1ccc(NC(=O)c2ccc(-c3ccc(-c4noc(C)n4)cc3C)cc2)cc1N1CCN(C)CC1	0.0753
COC(=O)C1=C(C)NC(C)=C([N+](=O)[O-])[C@H]1c1ccccc1C(F)(F)F	-0.0328
O=C(O)CCCc1ccccc1 [sodium 4-Phenylbutyrate]	0.007
c1ccc(-c2n[nH]c3c2oc2ccccc23)cc1	-0.0722
CC(=O)N[C@@H](CC(=O)N[C@@H](CCC(=O)O)C(=O)O)C(=O)O [Spaglumic acid]	0.0984
COc1ccccc1N1CCN(CCCCN2C(=O)c3ccccc3C2=O)CC1 [NAN-190 hydrobromide]	0.0792
CNCC[C@@H](Oc1ccccc1C)c1ccccc1 [Tomoxetine hydrochloride]	-0.0186
CC(C)NCC(O)c1ccc(NS(C)(=O)=O)cc1 (centres undefined) [Sotalol hydrochloride]	0.0845
CCN(CC)CCCC(C)Nc1nc(C)cc(Nc2ccc3nc(C)cc(N)c3c2)n1 (centres undefined)	-0.0288
CC1C(=O)OC2C(O)C34C5CC(C(C)(C)C)C36C(OC(=O)C6O)OC4(C(=O)O5)C12O (centres undefined) [Ginkgolide B]	0.00628
CCCCCCN(CCCCCC)C(=O)Cc1c(-c2ccc(Cl)cc2)[nH]c2ccc(Cl)cc12	-0.129
O=C(O)c1cc(=O)c2c(Cl)cc(Cl)cc2[nH]1 [5,7-Dichlorokynurenic acid]	-0.012
CCN(CC)CCOC(=O)c1cc(Cl)c(N)cc1OC [SDZ 205-557 hydrochloride]	-0.0464
C1CCC(N=C(NC23CC4CC(CC(C4)C2)C3)N2CCOCC2)CC1	0.0941
COc1ccccc1N1CCN(CC(O)COc2cccc3ccccc23)CC1 (centres undefined) [Naftopidil hydrochloride]	-0.00977
CC(C)C[C@H](NC(=O)[C@@H](O)[C@H](N)Cc1ccccc1)C(=O)O [Bestatin]	0.117
O=C1c2ccccc2C(Cc2ccncc2)(Cc2ccncc2)c2ccccc21 [XE 991 dihydrochloride]	-0.0476
CCOc1cc(C(=O)Nc2ccc(Cl)c(-c3nc4ccccc4[nH]3)c2)cc(OCC)c1OCC	-0.122
c1ccc(COCCCc2c[nH]cn2)cc1 [Proxyfan Oxalate]	0.031
